Measurements published in the supplement of paper PMC6078165.
The reference is the same well before dosing, and untreated signal decays as well.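 Fibroblast labels name human fibroblasts: mostly primary ones from tissues such as uterus (C12385, HUF), lung (H6013), bone (Hs27A), adrenal (HADF) and skin (WS1), plus mammary HMF and breast cancer-associated Hs343T. The cancer cells are basal-like or mesenchymal-like triple-negative breast cancer lines. The paper calls a changed response a hit when it shifts by more than 3x the replicate standard deviation. The tissue of the other fibroblasts is not given here.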

Tested on: HCC1143
Test: relative JC-1 red fluorescence (viability) vs pre-drug, coculture with fibroblast (fraction); higher = more viable cancer cells
Method: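 JC-1 labelled TNBC cells cocultured 1:1 (1,500 cells each) with CellTrace Violet stained primary or stromal fibroblasts in 384-well plates in FluoroBrite medium, treated with one of 42 anticancer drugs at 0.1, 1, 10 or 100 uM. JC-1 red fluorescence (mitochondrial integrity in cancer cells only) was read by plate reader every 8 h for 72 h. Values are normalised to each well's pre-drug value. The stock of one drug was tenfold lower, so its dose labels may be too high.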

N#Cc1ccc(C(c2ccc(C#N)cc2)n2cncn2)cc1 [Letrozole]
relative JC-1 red fluorescence
Details	8 h	16 h	24 h	32 h	40 h	48 h	56 h	64 h	72 h
0.1 µM, coculture fibroblast: C12385	0.82889	0.718	0.642	0.58	0.51	0.455	0.401	0.365	0.344
0.1 µM, coculture fibroblast: H6013	0.773	0.691	0.66	0.646	0.571	0.559	0.521	0.495	0.466
0.1 µM, coculture fibroblast: H6019	0.802	0.72	0.653	0.5798	0.5268	0.495	0.437	0.395	0.364
0.1 µM, coculture fibroblast: H6076	0.822	0.824	0.788	0.738	0.685	0.669	0.642	0.609	0.619
0.1 µM, coculture fibroblast: H6231	0.811	0.801	0.716	0.5903	0.598	0.558	0.52	0.472	0.449
0.1 µM, coculture fibroblast: HADF	0.76	0.6706	0.6458	0.648	0.55	0.528	0.495	0.469	0.452
0.1 µM, coculture fibroblast: HCFa	0.7607	0.671	0.6312	0.601	0.511	0.4832	0.427	0.387	0.357
0.1 µM, coculture fibroblast: HCPF	0.819	0.786	0.721	0.63031	0.614	0.577	0.529	0.493	0.467
0.1 µM, coculture fibroblast: HHSteC	0.832	0.795	0.759	0.725	0.65	0.629	0.581	0.552	0.497
0.1 µM, coculture fibroblast: HMF	0.8089	0.789	0.705	0.637	0.6	0.563	0.521	0.495	0.465
0.1 µM, coculture fibroblast: HPFa	0.882	0.781	0.75	0.657	0.6	0.562	0.496	0.439	0.393
0.1 µM, coculture fibroblast: HUF	0.848	0.753	0.707	0.635	0.586	0.564	0.508	0.469	0.44
0.1 µM, coculture fibroblast: Hs5	0.856	0.89252	0.833	0.778	0.726	0.695	0.658	0.629	0.608
0.1 µM, coculture fibroblast: Hs27A	0.724	0.614	0.577	0.58	0.455	0.433	0.382	0.347	0.316
0.1 µM, coculture fibroblast: Hs343T	0.821	0.793	0.718	0.64	0.59	0.551	0.497	0.472	0.453
0.1 µM, coculture fibroblast: WS1	0.8065	0.7418	0.687	0.615	0.561	0.511	0.462	0.423	0.396
1 µM, coculture fibroblast: C12385	0.827	0.721	0.637	0.57	0.514	0.469	0.433	0.396	0.38
1 µM, coculture fibroblast: H6013	0.799	0.719	0.695	0.69	0.63	0.623	0.581	0.557	0.504
1 µM, coculture fibroblast: H6019	0.793	0.721	0.701	0.647	0.594	0.576	0.527	0.481	0.445
1 µM, coculture fibroblast: H6076	0.792	0.776	0.709	0.657	0.608	0.591	0.552	0.529	0.529
1 µM, coculture fibroblast: H6231	0.805	0.781	0.693	0.607	0.596	0.564	0.529	0.487	0.461
1 µM, coculture fibroblast: HADF	0.791	0.74	0.715	0.731	0.659	0.644	0.615	0.594	0.577
1 µM, coculture fibroblast: HCFa	0.82	0.719	0.72	0.71	0.629	0.597	0.554	0.522	0.487
1 µM, coculture fibroblast: HCPF	0.827	0.7684	0.717	0.679	0.629	0.596	0.558	0.523	0.507
1 µM, coculture fibroblast: HHSteC	0.845	0.777	0.761	0.742	0.678	0.648	0.609	0.575	0.519
1 µM, coculture fibroblast: HMF	0.777	0.755	0.6856	0.6155	0.574	0.542	0.501	0.469	0.453
1 µM, coculture fibroblast: HPFa	0.911	0.815	0.78	0.707	0.627	0.588	0.524	0.468	0.419
1 µM, coculture fibroblast: HUF	0.859	0.783	0.729	0.666	0.608	0.583	0.528	0.489	0.468
1 µM, coculture fibroblast: Hs5	0.856	0.845	0.801	0.775	0.718	0.687	0.65	0.616	0.597
1 µM, coculture fibroblast: Hs27A	0.7779	0.7236	0.717	0.735	0.629	0.626	0.578	0.548	0.499
1 µM, coculture fibroblast: Hs343T	0.788	0.831	0.7298	0.627	0.601	0.56	0.496	0.462	0.437
1 µM, coculture fibroblast: WS1	0.8304	0.7371	0.701	0.634	0.566	0.529	0.483	0.443	0.42
10 µM, coculture fibroblast: C12385	0.8492	0.778	0.7031	0.643	0.591	0.55	0.518	0.482	0.463
10 µM, coculture fibroblast: H6013	0.744	0.66	0.61	0.581	0.504	0.493	0.457	0.437	0.404
10 µM, coculture fibroblast: H6019	0.843	0.781	0.754	0.715	0.689	0.664	0.617	0.58	0.551
10 µM, coculture fibroblast: H6076	0.814	0.815	0.776	0.731	0.691	0.667	0.631	0.6116	0.618
10 µM, coculture fibroblast: H6231	0.903	0.8534	0.825	0.799	0.778	0.759	0.725	0.684	0.671
10 µM, coculture fibroblast: HADF	0.733	0.687	0.657	0.668	0.565	0.537	0.505	0.481	0.472
10 µM, coculture fibroblast: HCFa	0.801	0.732	0.684	0.655	0.564	0.535	0.489	0.452	0.42
10 µM, coculture fibroblast: HCPF	0.81	0.813	0.751	0.67	0.666	0.6338	0.5933	0.5518	0.532
10 µM, coculture fibroblast: HHSteC	0.825	0.774	0.742	0.709	0.636	0.612	0.567	0.534	0.492
10 µM, coculture fibroblast: HMF	0.786	0.806	0.731	0.648	0.625	0.595	0.56	0.529	0.496
10 µM, coculture fibroblast: HPFa	0.871	0.788	0.753	0.66	0.606	0.577	0.5224	0.4712	0.4351
10 µM, coculture fibroblast: HUF	0.905	0.833	0.799	0.729	0.689	0.66	0.617	0.589	0.571
10 µM, coculture fibroblast: Hs5	0.841	0.915	0.8384	0.76554	0.7218	0.679	0.641	0.604	0.5849
10 µM, coculture fibroblast: Hs27A	0.721	0.6443	0.601	0.61	0.492	0.475	0.436	0.413	0.417
10 µM, coculture fibroblast: Hs343T	0.8146	0.882	0.823	0.703	0.6997	0.648	0.596	0.563	0.522
10 µM, coculture fibroblast: WS1	0.831	0.754	0.706	0.626	0.576	0.535	0.494	0.453	0.416
100 µM, coculture fibroblast: C12385	0.8688	0.791	0.725	0.66	0.594	0.55	0.508	0.473	0.447
100 µM, coculture fibroblast: H6013	0.8	0.7206	0.731	0.745	0.696	0.691	0.665	0.651	0.618
100 µM, coculture fibroblast: H6019	0.826	0.7563	0.7206	0.6603	0.6304	0.6076	0.564	0.538	0.507
100 µM, coculture fibroblast: H6076	0.8267	0.8115	0.784	0.765	0.728	0.733	0.694	0.677	0.674
100 µM, coculture fibroblast: H6231	0.83	0.822	0.739	0.623	0.646	0.618	0.585	0.554	0.531
100 µM, coculture fibroblast: HADF	0.716	0.641	0.622	0.637	0.535	0.504	0.471	0.445	0.456
100 µM, coculture fibroblast: HCFa	0.774	0.677	0.64665	0.64	0.553	0.525	0.473	0.435	0.411
100 µM, coculture fibroblast: HCPF	0.815	0.856	0.797	0.673	0.723	0.692	0.647	0.613	0.581
100 µM, coculture fibroblast: HHSteC	0.846	0.739	0.718	0.695	0.62	0.588	0.548	0.518	0.47
100 µM, coculture fibroblast: HMF	0.798	0.828	0.7558	0.653	0.657	0.628	0.582	0.541	0.503
100 µM, coculture fibroblast: HPFa	0.938	0.866	0.833	0.759	0.694	0.663	0.606	0.559	0.508
100 µM, coculture fibroblast: HUF	0.839	0.915	0.88	0.801	0.754	0.724	0.66	0.619	0.583
100 µM, coculture fibroblast: Hs5	0.845	0.928	0.8651	0.771	0.738	0.7	0.654	0.618	0.582
100 µM, coculture fibroblast: Hs27A	0.751	0.683	0.632	0.657	0.535	0.515	0.47	0.443	0.4384
100 µM, coculture fibroblast: Hs343T	0.8121	0.8159	0.744	0.666	0.6504	0.614	0.57	0.543	0.516
100 µM, coculture fibroblast: WS1	0.85165	0.778	0.739	0.681	0.636	0.594	0.554	0.514	0.491
